From the supplement of paper PMC10849652
The list shows a part of the results.

The chains behind the UniProt entries cited, without tags or fusion partners. Where a name states a change or a piece, a line headed by the entry shows the natural chain unless it says otherwise.
UniProt P09486: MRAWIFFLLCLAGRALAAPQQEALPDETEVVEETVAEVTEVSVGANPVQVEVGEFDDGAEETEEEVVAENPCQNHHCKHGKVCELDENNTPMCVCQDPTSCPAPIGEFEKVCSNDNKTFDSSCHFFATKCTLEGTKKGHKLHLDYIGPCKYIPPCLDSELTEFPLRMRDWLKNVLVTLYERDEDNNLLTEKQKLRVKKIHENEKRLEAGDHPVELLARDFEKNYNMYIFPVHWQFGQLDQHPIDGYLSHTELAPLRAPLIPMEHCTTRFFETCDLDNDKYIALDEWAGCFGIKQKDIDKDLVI
UniProt Q96EA4: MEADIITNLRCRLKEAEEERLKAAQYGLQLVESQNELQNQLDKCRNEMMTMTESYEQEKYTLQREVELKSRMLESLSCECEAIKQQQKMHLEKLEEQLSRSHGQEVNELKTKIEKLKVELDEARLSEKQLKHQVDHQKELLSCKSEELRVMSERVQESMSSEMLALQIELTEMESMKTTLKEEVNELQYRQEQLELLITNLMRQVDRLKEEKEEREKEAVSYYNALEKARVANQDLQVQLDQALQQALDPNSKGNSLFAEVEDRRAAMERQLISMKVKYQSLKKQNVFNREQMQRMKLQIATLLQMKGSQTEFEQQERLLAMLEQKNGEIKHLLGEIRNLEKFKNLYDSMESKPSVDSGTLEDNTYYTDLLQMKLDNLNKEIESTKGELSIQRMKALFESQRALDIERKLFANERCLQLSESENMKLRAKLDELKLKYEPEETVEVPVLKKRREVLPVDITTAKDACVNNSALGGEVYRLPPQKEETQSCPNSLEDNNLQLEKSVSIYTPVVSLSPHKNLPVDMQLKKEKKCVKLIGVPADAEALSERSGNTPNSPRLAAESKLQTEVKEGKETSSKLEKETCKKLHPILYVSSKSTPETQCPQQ
UniProt O43805: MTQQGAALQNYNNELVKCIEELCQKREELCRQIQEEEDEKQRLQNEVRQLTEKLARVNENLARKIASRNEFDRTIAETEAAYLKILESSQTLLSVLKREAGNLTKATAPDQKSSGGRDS
UniProt Q8TCT8: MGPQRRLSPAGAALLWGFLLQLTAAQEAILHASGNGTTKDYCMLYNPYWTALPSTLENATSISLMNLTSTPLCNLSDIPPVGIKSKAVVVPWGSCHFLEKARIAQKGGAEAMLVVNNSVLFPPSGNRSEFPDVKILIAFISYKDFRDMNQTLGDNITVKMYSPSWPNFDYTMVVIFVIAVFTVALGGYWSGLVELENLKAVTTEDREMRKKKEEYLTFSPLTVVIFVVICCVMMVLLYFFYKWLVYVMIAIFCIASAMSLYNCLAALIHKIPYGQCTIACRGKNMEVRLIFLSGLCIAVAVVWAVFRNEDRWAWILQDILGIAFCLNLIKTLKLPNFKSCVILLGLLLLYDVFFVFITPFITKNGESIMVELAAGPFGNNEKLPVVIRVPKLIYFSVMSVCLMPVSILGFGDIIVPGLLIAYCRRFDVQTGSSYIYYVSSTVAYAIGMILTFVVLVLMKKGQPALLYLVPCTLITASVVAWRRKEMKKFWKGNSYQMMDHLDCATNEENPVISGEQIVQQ
UniProt Q9GZT4: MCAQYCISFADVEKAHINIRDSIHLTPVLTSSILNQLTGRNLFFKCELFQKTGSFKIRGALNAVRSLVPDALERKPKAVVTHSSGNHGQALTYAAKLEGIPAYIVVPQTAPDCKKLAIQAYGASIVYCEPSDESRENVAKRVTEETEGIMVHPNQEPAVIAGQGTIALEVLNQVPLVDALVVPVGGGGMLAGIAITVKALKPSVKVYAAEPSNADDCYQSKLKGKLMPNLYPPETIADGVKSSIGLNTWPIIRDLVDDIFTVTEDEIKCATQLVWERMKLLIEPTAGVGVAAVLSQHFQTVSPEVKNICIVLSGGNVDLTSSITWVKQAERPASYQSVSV
UniProt Q9C004: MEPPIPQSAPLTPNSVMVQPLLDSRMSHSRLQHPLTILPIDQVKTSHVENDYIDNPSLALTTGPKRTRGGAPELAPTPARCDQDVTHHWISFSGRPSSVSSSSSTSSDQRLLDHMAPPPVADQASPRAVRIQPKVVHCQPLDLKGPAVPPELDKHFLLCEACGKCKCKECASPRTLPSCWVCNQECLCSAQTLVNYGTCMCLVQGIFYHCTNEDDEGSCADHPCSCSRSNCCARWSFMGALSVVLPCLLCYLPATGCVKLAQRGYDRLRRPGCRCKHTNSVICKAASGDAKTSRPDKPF
UniProt Q14534: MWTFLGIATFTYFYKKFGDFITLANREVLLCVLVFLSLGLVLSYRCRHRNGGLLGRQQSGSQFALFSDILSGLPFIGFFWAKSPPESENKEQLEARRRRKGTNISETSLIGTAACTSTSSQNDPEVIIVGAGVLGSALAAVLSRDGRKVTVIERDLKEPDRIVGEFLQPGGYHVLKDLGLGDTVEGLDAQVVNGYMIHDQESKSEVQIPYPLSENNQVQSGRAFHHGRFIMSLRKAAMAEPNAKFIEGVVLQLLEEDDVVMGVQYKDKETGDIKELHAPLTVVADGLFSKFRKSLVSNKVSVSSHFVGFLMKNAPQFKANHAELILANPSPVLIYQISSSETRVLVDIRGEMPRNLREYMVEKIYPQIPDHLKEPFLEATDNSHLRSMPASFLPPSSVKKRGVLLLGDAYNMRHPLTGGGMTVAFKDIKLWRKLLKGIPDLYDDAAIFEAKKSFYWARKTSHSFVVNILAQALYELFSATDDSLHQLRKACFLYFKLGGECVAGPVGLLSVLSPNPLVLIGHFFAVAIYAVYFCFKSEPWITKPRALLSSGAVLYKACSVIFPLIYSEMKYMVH
UniProt Q9UH36: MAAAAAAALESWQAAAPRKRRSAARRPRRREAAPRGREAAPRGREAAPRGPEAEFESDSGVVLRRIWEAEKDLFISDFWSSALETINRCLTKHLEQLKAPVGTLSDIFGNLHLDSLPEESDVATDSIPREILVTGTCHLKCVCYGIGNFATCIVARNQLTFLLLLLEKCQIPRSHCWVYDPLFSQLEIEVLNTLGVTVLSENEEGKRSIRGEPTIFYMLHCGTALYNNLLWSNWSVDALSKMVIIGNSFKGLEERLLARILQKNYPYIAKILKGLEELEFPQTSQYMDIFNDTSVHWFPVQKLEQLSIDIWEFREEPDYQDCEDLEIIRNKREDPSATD
UniProt P61009: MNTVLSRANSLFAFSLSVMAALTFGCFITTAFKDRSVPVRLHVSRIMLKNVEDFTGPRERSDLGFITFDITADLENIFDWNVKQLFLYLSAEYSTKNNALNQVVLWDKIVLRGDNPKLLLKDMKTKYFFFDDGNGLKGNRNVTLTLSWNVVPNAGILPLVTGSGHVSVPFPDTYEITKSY
UniProt P81877: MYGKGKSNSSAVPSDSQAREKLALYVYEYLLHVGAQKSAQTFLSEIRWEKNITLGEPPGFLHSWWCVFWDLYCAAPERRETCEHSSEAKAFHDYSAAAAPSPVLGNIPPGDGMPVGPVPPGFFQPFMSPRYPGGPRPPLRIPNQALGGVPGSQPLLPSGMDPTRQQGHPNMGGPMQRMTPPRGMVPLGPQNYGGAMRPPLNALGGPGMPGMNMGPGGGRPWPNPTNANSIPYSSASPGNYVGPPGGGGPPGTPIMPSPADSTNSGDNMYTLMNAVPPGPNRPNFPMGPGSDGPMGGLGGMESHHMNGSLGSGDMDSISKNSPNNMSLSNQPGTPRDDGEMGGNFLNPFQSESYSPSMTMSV
UniProt Q9UQ90: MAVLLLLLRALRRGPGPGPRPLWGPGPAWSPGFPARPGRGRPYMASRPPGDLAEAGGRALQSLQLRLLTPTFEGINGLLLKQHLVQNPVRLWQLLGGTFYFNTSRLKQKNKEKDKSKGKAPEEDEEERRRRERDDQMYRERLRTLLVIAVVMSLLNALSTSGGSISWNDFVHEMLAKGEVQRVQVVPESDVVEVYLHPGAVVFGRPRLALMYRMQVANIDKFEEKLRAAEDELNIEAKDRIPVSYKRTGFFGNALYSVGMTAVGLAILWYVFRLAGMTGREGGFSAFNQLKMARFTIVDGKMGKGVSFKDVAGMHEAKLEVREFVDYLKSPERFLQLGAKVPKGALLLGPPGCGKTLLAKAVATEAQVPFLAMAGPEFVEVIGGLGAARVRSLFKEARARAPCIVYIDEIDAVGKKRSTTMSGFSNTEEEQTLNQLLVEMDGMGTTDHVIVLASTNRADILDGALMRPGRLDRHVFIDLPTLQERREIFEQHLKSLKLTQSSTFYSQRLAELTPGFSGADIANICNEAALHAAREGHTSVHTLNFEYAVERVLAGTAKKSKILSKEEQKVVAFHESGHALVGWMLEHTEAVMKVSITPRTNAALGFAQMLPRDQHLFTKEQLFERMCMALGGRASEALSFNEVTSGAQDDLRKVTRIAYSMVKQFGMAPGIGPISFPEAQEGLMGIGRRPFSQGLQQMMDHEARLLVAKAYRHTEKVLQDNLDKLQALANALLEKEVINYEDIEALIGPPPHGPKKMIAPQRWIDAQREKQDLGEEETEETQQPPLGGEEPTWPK
UniProt Q6ZUB1: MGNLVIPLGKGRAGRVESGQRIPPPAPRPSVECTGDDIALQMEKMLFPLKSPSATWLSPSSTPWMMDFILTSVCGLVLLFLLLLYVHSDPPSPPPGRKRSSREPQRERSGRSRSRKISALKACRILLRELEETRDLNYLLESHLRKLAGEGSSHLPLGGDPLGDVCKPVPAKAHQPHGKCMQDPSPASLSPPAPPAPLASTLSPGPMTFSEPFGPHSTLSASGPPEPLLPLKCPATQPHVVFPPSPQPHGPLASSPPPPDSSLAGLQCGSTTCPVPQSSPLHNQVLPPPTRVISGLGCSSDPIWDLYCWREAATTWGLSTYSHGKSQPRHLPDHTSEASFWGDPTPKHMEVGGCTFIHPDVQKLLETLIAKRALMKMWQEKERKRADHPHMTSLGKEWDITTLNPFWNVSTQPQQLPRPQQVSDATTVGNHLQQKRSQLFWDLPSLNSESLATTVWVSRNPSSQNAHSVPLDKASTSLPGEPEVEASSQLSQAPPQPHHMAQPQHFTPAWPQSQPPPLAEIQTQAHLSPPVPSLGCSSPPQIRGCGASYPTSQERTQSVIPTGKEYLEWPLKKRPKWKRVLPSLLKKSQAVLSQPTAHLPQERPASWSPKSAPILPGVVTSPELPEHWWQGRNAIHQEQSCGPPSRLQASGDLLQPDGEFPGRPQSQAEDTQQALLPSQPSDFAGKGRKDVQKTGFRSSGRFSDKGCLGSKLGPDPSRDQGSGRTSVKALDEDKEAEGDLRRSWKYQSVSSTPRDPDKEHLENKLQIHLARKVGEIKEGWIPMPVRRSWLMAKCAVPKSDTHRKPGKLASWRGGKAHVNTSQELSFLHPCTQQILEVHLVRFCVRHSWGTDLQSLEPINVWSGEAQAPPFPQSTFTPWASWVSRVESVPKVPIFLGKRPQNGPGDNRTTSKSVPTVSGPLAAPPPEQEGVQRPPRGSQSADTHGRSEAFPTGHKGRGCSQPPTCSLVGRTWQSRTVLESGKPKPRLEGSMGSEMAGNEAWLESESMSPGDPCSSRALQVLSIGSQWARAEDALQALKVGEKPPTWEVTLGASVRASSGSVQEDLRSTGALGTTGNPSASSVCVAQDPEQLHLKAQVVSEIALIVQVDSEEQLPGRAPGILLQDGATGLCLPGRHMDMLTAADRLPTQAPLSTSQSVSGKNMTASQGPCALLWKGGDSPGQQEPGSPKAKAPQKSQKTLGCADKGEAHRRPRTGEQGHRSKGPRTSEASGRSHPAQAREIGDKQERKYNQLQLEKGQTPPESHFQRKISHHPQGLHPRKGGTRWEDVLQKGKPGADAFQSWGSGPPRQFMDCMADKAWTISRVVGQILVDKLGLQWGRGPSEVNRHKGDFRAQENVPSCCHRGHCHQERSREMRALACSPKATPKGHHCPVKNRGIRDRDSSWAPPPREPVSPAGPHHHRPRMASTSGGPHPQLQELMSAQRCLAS
UniProt O15269: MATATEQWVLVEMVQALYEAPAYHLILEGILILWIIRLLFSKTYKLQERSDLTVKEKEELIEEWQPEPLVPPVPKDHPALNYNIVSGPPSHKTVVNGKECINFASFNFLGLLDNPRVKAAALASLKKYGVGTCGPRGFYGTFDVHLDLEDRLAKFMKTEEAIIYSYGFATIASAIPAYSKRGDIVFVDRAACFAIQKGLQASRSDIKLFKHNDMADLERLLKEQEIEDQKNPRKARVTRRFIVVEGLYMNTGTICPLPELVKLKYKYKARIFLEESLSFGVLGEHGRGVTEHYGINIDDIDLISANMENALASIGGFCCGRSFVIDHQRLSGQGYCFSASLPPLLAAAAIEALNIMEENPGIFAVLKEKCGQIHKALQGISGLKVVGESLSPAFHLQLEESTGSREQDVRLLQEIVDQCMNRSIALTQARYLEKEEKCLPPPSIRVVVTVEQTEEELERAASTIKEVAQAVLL

compound: c1cn2cc(-c3ccc4cn[nH]c4c3)nc(Nc3ccc(N4CCOCC4)cc3)c2n1 [entospletinib]; assay: log2 fold change, soluble protein after heating vs DMSO (PISA); higher = thermal stabilisation; K562 cells, 10 uM, 30 min; active = over 0.2 and 3.5 SD of the protein, either way, in both replicates (recomputed)
Outline: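 Quantification of soluble protein used TMTpro 16plex LC-MS/MS, with channel sums equalised. Samples were the supernatant after 21,000xg for 90 min of pooled aliquots from K562 cells (2×10^6 cells/mL) treated with 10 μM compound for 30 min, heated for 3 min over 48°C-58°C, and extracted in PBS with 0.5% NP-40 at 4°C. Values, from duplicates, describe thermal stability against control samples on a log2 fold-change scale.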

log2 fold change, inactive:
SPTA1 (UniProt P02549) 0.185
SPARC (UniProt P09486) 0.005
SPDL1 (UniProt Q96EA4) -0.143
SSNA1 (UniProt O43805) 0.016
SSR1 (UniProt P43307) 0.019
SRP54 (UniProt P61011) 0
SPPL2A (UniProt Q8TCT8) -0.04
SRR (UniProt Q9GZT4) 0.079
SRPK2 isoform 2 (UniProt P78362) 0.078
SPRY4 (UniProt Q9C004) -0.031
SQLE (UniProt Q14534) -0.01
STAG2 (UniProt Q8N3U4) -0.011
SRRD (UniProt Q9UH36) 0.082
SRM (UniProt P19623) 0.086
SPNS1 (UniProt Q9H2V7) -0.033
SPCS3 (UniProt P61009) -0.023
STAT2 (UniProt P52630) 0.27
SSBP2 (UniProt P81877) -0.023
SRGAP2 (UniProt O75044) 0.06
SPN (UniProt P16150) -0.073
STK11 (UniProt Q15831) -0.04
SPG7 (UniProt Q9UQ90) 0.012
SPATA31E1 (UniProt Q6ZUB1) 0.118
SPTLC1 (UniProt O15269) -0.009

No new results follow: an excerpt of the list.
log2 fold change, inactive:
SPNS1 (UniProt Q9H2V7) -0.033
SPCS3 (UniProt P61009) -0.023
